Measured data: PubChem BioAssay AID652272 (Drosophila RNAi Screening Center, 2013)

Screen: 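Finding fly genes that regulate Hedgehog signal transduction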 (primary screen)
System: Drosophila clone 8 (Cl8) cells
Reagents: long dsRNA against Drosophila genes
Measured: 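Plate reader light from a firefly reporter under a ptc promoter fragment that responds to Hedgehog, with Renilla light as transfection reference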
Scale: firefly Hh reporter signal: higher = more ptc reporter light; Renilla reference signal: higher = more Renilla control light
Rule for the call: 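Called a hit if the two-replicate mean z-score lies below -2 or above +3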
Calls: active = hit: reporter lowered or raised; inactive = not a hit
In all, the deposit lists about 21,000 reagents; below is a random part of those with a known target gene and a result. In the full data, 503 (2.4%) got an active call. 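Raw plate light values, not normalised; calls rest on replicate z-scores that were not deposited; hits include reporter decreases as well as increases.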 Reagents against one gene are numbered here. Names joined by + are all predicted targets of the reagent. Reagent sequences are not shown. The record does not give: the amount of reagent, the time to read-out.

| gene knocked down | dsRNA no. | firefly Hh reporter signal, replicate 1 | firefly Hh reporter signal, replicate 2 | firefly Hh reporter signal, replicate 3 | Renilla reference signal, replicate 1 | Renilla reference signal, replicate 2 | activity call |
| --- | --- | --- | --- | --- | --- | --- | --- |
| CG15115 | 1 | 6.76e5 | 1.48e5 | – | 6368 | 6368 | inactive |
| CG17821 | 1 | 70769 | 46412 | – | 1955 | 3706 | inactive |
| CG3156 | 1 | 81318 | 1.02e5 | – | 1573 | 2706 | inactive |
| CG7296 | 1 | 4.33e5 | 7.64e5 | 2.45e5 | 27574 | 5802 | inactive |
| RluA-1 | 1 | 97616 | 50066 | – | 2179 | 4076 | inactive |
| RluA-1 | 2 | 81772 | 69485 | – | 2041 | 4868 | inactive |
| Cks30A | 1 | 62380 | 45584 | – | 2672 | 2101 | inactive |
| Rad1 + Sws1 | 1 | 1.24e5 | 99489 | – | 2858 | 2427 | inactive |
| S-Lap8 | 1 | 1.57e5 | 6.73e5 | 1.11e5 | 7616 | 40980 | inactive |
| CG15219 | 1 | 93250 | 1.00e5 | – | 1866 | 6896 | inactive |
| Dbp21E2 | 1 | 1.03e5 | 1.45e5 | – | 4432 | 5940 | inactive |
| CG30334 | 1 | 1.33e5 | 2.18e5 | – | 3401 | 9979 | inactive |
| AP-2sigma | 1 | 5.08e5 | 1.82e5 | – | 25936 | 3869 | inactive |
| Cdc23 | 1 | 1.04e5 | 59642 | – | 3921 | 1888 | inactive |
| VAChT + ChAT | 1 | 55825 | 1.73e5 | – | 10455 | 2533 | inactive |
| lolal | 1 | 1.37e5 | 1.02e5 | – | 6352 | 4544 | inactive |
| repo | 1 | 3.56e5 | 55186 | – | 18891 | 1413 | inactive |
| CG12253 | 1 | 49101 | 41468 | – | 2275 | 1728 | inactive |
| CG13218 | 1 | 1.10e5 | 54565 | – | 2332 | 3676 | inactive |
| CG12964 | 1 | 74784 | 38099 | – | 1910 | 2720 | inactive |
| CG13075 | 1 | 1.43e5 | – | – | 8834 | 4028 | inactive |
| Usp32 | 1 | 1.01e5 | 1.11e5 | – | 3452 | 2906 | inactive |
| Arf4 | 1 | 48313 | 1.32e5 | – | 1667 | 6986 | inactive |
| CCAP | 1 | 4.66e5 | 1.24e5 | – | 23138 | 4107 | inactive |
| GstE2 | 1 | 94488 | 81840 | – | 2713 | 5851 | inactive |
| Pxd | 1 | 55752 | 1.17e5 | – | 1301 | 3109 | inactive |
| CG17568 | 1 | 1.06e5 | 5.36e5 | 82365 | 2568 | 30321 | inactive |
| SkpE | 1 | 99260 | 2.57e5 | – | 2269 | 10738 | inactive |
| crc | 1 | 97580 | 77147 | – | 2523 | 6331 | inactive |
| tank | 1 | 1.00e5 | 56523 | – | 2755 | 5083 | inactive |

Copied from the list.
CG12253, firefly Hh reporter signal, replicate 1: 49101
For “firefly Hh reporter signal, replicate 1”, CG13218 shows 1.10e5
VAChT + ChAT, Renilla reference signal, replicate 2 → 2533
Value for Rad1 + Sws1 in “activity call”: inactive
Under “firefly Hh reporter signal, replicate 1”, CCAP shows 4.66e5
Arf4, Renilla reference signal, replicate 1 = 1667

Additional reagents follow:
| gene knocked down | dsRNA no. | firefly Hh reporter signal, replicate 1 | firefly Hh reporter signal, replicate 2 | firefly Hh reporter signal, replicate 3 | Renilla reference signal, replicate 1 | Renilla reference signal, replicate 2 | activity call |
| --- | --- | --- | --- | --- | --- | --- | --- |
| Ca-alpha1T | 1 | 96048 | 1.30e5 | – | 3323 | 5612 | inactive |
| Ca-alpha1T | 2 | 1.61e5 | 5.52e5 | 3.00e5 | 6108 | 3272 | inactive |
| Ca-alpha1T | 3 | 62401 | 1.21e5 | – | 2085 | 4976 | inactive |
| Ca-alpha1T | 4 | 66459 | 1.50e5 | – | 2663 | 5707 | inactive |
| Nle | 1 | 1.36e5 | 1.12e5 | – | 3158 | 2600 | inactive |
| SdhCL | 1 | 1.33e5 | 1.76e5 | – | 3888 | 4793 | inactive |
| CCT6 | 1 | 79506 | 71740 | – | 2563 | 2256 | inactive |
| Smg6 | 1 | 1.69e5 | 1.70e5 | – | 5284 | 5328 | inactive |
| CG17108 | 1 | 1.67e5 | 62512 | – | 4416 | 6667 | inactive |
| DZIP1 | 1 | 4.80e5 | 1.01e5 | – | 27849 | 2853 | inactive |
| CG13643 | 1 | 5.50e5 | 1.18e5 | – | 26008 | 3206 | inactive |
| CG13643 | 2 | 5.56e5 | 1.51e5 | – | 28039 | 4661 | inactive |
| sut3 | 1 | 69597 | 59969 | – | 1752 | 4810 | inactive |
| CG2975 | 1 | 2.02e5 | 1.37e5 | – | 4453 | 3607 | inactive |
| CG31496 | 1 | 6.70e5 | 1.43e5 | – | 5474 | 5474 | inactive |
| CG8654 | 1 | 76884 | 52196 | – | 3386 | 2684 | inactive |
| CG14153 | 1 | 48192 | 83520 | 85626 | 6595 | 6368 | inactive |
| RpL10Ab | 1 | 45298 | 24800 | 22727 | 6378 | 2826 | active |
| HDAC4 | 1 | 1.03e5 | 3.20e5 | – | 2537 | 11088 | inactive |
| csw | 1 | 1.15e5 | 2.03e5 | – | 4546 | 7959 | inactive |
| Patsas | 1 | 80080 | 59046 | – | 3745 | 2400 | inactive |
| xit | 1 | 80851 | 58240 | – | 1768 | 1281 | inactive |
| CG8746 | 1 | 96514 | 55700 | – | 2064 | 3984 | inactive |
| TTLL15 | 1 | 50608 | 1.01e5 | – | 1369 | 2928 | inactive |
| CG13084 | 1 | 72960 | 54060 | – | 1970 | 4594 | inactive |
| CG14495 | 1 | 60705 | 64028 | – | 1536 | 4587 | inactive |
| Nuf2 | 1 | 35360 | 47041 | – | 1461 | 2162 | inactive |
